In paper doi:10.1101/2025.08.05.668554:
These are yes or no findings as the source states them, for the method shown. In cells and extracts the contact can be indirect. Some results given as binding are weak or reduced against the parent protein; the word gives no strength.

By UniProt entry, the sequences of proteins in these tests, tags left out.
UniProt P68400: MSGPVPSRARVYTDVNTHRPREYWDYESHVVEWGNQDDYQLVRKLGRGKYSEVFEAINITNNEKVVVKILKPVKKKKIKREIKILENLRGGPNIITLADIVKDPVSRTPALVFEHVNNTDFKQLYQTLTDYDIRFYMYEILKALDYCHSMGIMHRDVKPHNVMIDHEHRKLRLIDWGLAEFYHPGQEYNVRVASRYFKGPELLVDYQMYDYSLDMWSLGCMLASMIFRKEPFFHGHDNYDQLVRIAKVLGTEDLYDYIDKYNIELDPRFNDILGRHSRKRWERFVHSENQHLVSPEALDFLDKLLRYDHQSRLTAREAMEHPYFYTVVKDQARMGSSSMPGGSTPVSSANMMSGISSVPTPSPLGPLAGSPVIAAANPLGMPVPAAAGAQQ
UniProt Q14914: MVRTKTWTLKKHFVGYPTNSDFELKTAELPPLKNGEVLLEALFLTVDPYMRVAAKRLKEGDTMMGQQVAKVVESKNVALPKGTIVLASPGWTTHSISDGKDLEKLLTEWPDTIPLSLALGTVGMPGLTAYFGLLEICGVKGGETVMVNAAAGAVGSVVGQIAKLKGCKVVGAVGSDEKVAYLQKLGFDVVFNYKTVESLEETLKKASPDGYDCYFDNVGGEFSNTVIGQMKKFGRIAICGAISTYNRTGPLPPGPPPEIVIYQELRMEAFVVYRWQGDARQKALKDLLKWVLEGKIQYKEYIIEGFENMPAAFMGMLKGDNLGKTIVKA

Target: CK2α1 (UniProt P68400)
Assay: co-IP

Q: PTGR1 (from UniProt Q14914 1-329) was tested. Which binding did it give?
A: binds
